The source of these data is article PMC12631102, “SYT4 Interacts with PSMC6 to Facilitate Malignant Progression in Gastric Carcinoma via Activating Wnt/β-catenin Signaling” (International Journal of Biological Sciences, 2025).

Amino acid sequences for entries named in this document (tags omitted).
UniProt P62333: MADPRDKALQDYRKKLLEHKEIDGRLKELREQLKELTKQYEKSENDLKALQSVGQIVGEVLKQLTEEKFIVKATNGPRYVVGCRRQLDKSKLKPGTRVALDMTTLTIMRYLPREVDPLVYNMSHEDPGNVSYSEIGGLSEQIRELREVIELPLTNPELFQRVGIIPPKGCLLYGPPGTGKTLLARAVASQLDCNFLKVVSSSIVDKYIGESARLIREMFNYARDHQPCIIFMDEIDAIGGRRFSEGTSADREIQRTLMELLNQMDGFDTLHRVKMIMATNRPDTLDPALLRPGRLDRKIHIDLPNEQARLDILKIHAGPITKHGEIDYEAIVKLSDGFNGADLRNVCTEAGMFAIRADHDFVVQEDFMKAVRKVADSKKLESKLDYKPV

These are yes or no findings as the source states them, for the method shown. In cells and extracts the contact can be indirect. A yes stands for co-enrichment or nearness to the bait. Other partners may have been found. Sequences can lack the tags named with a protein.

The target in the assay is T1, Synaptotagmin-4 (SYT4), overexpressed in cells (UniProt Q9H2B2).
T1 sequence: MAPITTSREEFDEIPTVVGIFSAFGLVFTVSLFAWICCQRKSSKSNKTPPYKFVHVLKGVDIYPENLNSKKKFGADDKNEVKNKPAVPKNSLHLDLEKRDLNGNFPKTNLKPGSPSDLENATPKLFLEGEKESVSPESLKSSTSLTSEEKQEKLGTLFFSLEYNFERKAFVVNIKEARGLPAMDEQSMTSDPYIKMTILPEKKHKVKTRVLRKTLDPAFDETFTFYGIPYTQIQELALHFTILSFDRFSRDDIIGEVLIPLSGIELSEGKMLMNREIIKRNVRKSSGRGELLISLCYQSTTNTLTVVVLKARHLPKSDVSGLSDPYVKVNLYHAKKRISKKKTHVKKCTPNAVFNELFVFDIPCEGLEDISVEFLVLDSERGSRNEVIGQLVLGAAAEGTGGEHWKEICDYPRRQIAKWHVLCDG
The assay can be described thus: affinity purification with mass spectrometry; IP from RIPA lysates of SYT4-overexpressing and control cells with anti-Flag or IgG overnight at 4 °C, protein A/G magnetic beads; bound proteins identified by mass spectrometry (Orizymes).

For the substance “Proteasome 26S subunit ATPase 6 (PSMC6), in cell lysate (from UniProt P62333 1-389)”, the binding result was “binds”.
